PubChem BioAssay AID1259254, NCATS – 2017
This is an unselected part of about 59,000 reagents tested. In the full data, about 1,550 (2.6%) are marked active. 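G2 share is only a proxy for re-replication; each gene was hit by three separate siRNAs, and active genes were retested.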 Raw values vary from plate to plate and are shown uncorrected. The numbers tell different reagents against one gene apart. Not stated in the record: the amount of reagent.

Purpose: 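Finding genes that stop cells copying their DNA twice in one cycle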 (primary screen)
Cells: human HCT116 colorectal cancer cells
Knock-down reagent: single siRNA against human genes
Duration: 3 days
Read-out: 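Imaged Hoechst DNA stain sorts each cell into a cycle phase by DNA amount; per plate, G2 fraction set to 0% for non-targeting and 100% for GMNN siRNA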
Direction: G2 robust z-score and G2 cells, % of GMNN control: higher = more G2 cells, more excess DNA replication; raw share of cells in G2: higher = larger share of cells with G2 DNA content
Hit rule: 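Active siRNAs have a G2 robust z of 5 or more median absolute deviations over the median, which in these data means about 38% or higher of GMNN control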

| gene | reagent | G2 robust z-score | G2 cells, % of GMNN control | raw share of cells in G2 (%) | outcome |
| --- | --- | --- | --- | --- | --- |
| PRPF39 (GeneID 55015) | 1 | -0.698 | -1.95 | 3.78 | inactive |
| PRPF39 (GeneID 55015) | 2 | 1.4 | 12.8 | 9.45 | inactive |
| PRPF39 (GeneID 55015) | 3 | 1.94 | 16.6 | 8.44 | inactive |
| ANXA4 (GeneID 307) | 1 | -0.117 | 2.15 | 4.79 | inactive |
| ANXA4 (GeneID 307) | 2 | -0.956 | -3.76 | 3.74 | inactive |
| ANXA4 (GeneID 307) | 3 | -0.254 | 1.18 | 5.12 | inactive |
| LMOD3 (GeneID 56203) | 1 | 0.34 | 5.36 | 6.46 | inactive |
| LMOD3 (GeneID 56203) | 2 | 1.35 | 12.5 | 10.4 | inactive |
| LMOD3 (GeneID 56203) | 3 | -0.309 | 0.793 | 3.28 | inactive |
| DEXI (GeneID 28955) | 1 | 0.113 | 3.76 | 5.29 | inactive |
| DEXI (GeneID 28955) | 2 | 2.59 | 21.2 | 12.6 | inactive |
| DEXI (GeneID 28955) | 3 | 8.61 | 63.5 | 23.3 | active |
| NEGR1 (GeneID 257194) | 1 | -0.363 | 0.412 | 4.85 | inactive |
| NEGR1 (GeneID 257194) | 2 | 3.91 | 30.5 | 17.5 | inactive |
| NEGR1 (GeneID 257194) | 3 | 0.459 | 6.2 | 8.91 | inactive |
| AP5M1 (GeneID 55745) | 1 | -0.109 | 2.2 | 5.37 | inactive |
| AP5M1 (GeneID 55745) | 2 | 2.41 | 19.9 | 12.4 | inactive |
| AP5M1 (GeneID 55745) | 3 | -0.601 | -1.26 | 2.74 | inactive |

Laid out differently: results already given
{"gene": "LMOD3 (GeneID 56203)", "reagent": 1, "G2 robust z-score": 0.34, "G2 cells, % of GMNN control": 5.36, "raw share of cells in G2 (%)": 6.46, "outcome": "inactive"}
{"gene": "LMOD3 (GeneID 56203)", "reagent": 2, "G2 robust z-score": 1.35, "G2 cells, % of GMNN control": 12.5, "raw share of cells in G2 (%)": 10.4, "outcome": "inactive"}
{"gene": "LMOD3 (GeneID 56203)", "reagent": 3, "G2 robust z-score": -0.309, "G2 cells, % of GMNN control": 0.793, "raw share of cells in G2 (%)": 3.28, "outcome": "inactive"}
{"gene": "DEXI (GeneID 28955)", "reagent": 1, "G2 robust z-score": 0.113, "G2 cells, % of GMNN control": 3.76, "raw share of cells in G2 (%)": 5.29, "outcome": "inactive"}

The results go on:
| gene | reagent | G2 robust z-score | G2 cells, % of GMNN control | raw share of cells in G2 (%) | outcome |
| --- | --- | --- | --- | --- | --- |
| MKI67 (GeneID 4288) | 1 | -0.196 | 1.59 | 5.65 | inactive |
| MKI67 (GeneID 4288) | 2 | -0.697 | -1.94 | 3.46 | inactive |
| MKI67 (GeneID 4288) | 3 | -0.396 | 0.18 | 3.42 | inactive |
| FAM181B (GeneID 220382) | 1 | -0.209 | 1.5 | 4.12 | inactive |
| FAM181B (GeneID 220382) | 2 | -0.57 | -1.04 | 2.77 | inactive |
| FAM181B (GeneID 220382) | 3 | 0.794 | 8.55 | 5.92 | inactive |
| BCL6B (GeneID 255877) | 1 | -0.505 | -0.586 | 2.89 | inactive |
| BCL6B (GeneID 255877) | 2 | -0.389 | 0.232 | 3.25 | inactive |
| BCL6B (GeneID 255877) | 3 | 1.25 | 11.8 | 7.66 | inactive |
| CHD9 (GeneID 80205) | 1 | -0.263 | 1.12 | 5.2 | inactive |
| CHD9 (GeneID 80205) | 2 | -0.252 | 1.2 | 5.93 | inactive |
| CHD9 (GeneID 80205) | 3 | 1.35 | 12.5 | 8.71 | inactive |
| MMACHC (GeneID 25974) | 1 | -0.827 | -2.85 | 3.34 | inactive |
| MMACHC (GeneID 25974) | 2 | -0.119 | 2.13 | 4.86 | inactive |
| MMACHC (GeneID 25974) | 3 | 0.316 | 5.19 | 5.11 | inactive |
| SNCB (GeneID 6620) | 1 | -0.796 | -2.63 | 3.96 | inactive |
| SNCB (GeneID 6620) | 2 | 0.0333 | 3.2 | 5.16 | inactive |
| SNCB (GeneID 6620) | 3 | 1.46 | 13.2 | 8.03 | inactive |
| DYNC1H1 (GeneID 1778) | 1 | 2.69 | 21.9 | 12.8 | inactive |
| DYNC1H1 (GeneID 1778) | 2 | 6.43 | 48.2 | 22.6 | active |
| DYNC1H1 (GeneID 1778) | 3 | -0.956 | -3.76 | 2.8 | inactive |
| ZNF831 (GeneID 128611) | 1 | -0.932 | -3.59 | 2.82 | inactive |
| ZNF831 (GeneID 128611) | 2 | -0.761 | -2.39 | 2.35 | inactive |
| ZNF831 (GeneID 128611) | 3 | 1.82 | 15.8 | 8.29 | inactive |
| TMEM14DP (GeneID 645203) | 1 | 0.91 | 9.37 | 6.64 | inactive |
| TMEM14DP (GeneID 645203) | 2 | 13 | 94.2 | 30.6 | active |
| TMEM14DP (GeneID 645203) | 3 | -0.266 | 1.09 | 4.05 | inactive |
| RGMA (GeneID 56963) | 1 | -0.861 | -3.09 | 3.13 | inactive |
| RGMA (GeneID 56963) | 2 | -0.281 | 0.99 | 4.93 | inactive |
| RGMA (GeneID 56963) | 3 | 1.69 | 14.9 | 7.75 | inactive |
